In experiment [1] the target is FLAG-[βarr]D2R (human) (UniProt P14416). The experiment can be described thus: condition: only cells pretreated with 10 μM PP2 for 30 min; co-IP; as a1, but cells pretreated with 10 μM PP2 (Src family kinase inhibitor) for 30 min before 10 μM DA for 2 min; anti-FLAG beads, immunoblot with anti-GRK2. For orientation: A western blot detects proteins with antibodies after separation by electrophoresis.

Sequences of proteins named here, by UniProt entry; tags and fusion partners are left off. A change or cut given only in a name is not applied to a line headed by its entry. A line that says so, or that is headed by a name, gives the form on record, which may keep a tag or linker.
UniProt P14416: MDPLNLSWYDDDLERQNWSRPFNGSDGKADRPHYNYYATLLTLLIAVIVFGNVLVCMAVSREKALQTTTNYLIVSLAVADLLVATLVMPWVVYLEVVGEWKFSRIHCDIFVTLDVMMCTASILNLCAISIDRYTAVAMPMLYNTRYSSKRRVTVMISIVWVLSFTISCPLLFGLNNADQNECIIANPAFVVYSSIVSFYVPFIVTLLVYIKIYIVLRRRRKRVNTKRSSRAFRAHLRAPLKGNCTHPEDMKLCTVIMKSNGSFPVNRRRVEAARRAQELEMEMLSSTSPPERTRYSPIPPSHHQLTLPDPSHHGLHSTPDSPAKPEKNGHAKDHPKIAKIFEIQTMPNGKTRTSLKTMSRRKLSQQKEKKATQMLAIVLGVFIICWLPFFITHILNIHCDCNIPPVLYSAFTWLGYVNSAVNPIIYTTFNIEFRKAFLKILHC
FLAG-[βarr]D2R (P14416, form named): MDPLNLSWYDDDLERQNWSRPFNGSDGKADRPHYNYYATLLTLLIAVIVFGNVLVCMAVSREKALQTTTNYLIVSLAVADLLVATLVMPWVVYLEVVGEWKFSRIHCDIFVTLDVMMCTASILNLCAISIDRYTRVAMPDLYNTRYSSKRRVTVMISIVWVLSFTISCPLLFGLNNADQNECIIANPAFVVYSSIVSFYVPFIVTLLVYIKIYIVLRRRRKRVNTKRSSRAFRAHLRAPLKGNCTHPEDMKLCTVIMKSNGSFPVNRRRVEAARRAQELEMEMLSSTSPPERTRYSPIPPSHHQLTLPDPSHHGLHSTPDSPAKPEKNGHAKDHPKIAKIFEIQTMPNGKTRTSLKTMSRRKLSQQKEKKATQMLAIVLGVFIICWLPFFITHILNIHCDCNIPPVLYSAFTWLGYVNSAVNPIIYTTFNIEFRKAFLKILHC
UniProt Q00987: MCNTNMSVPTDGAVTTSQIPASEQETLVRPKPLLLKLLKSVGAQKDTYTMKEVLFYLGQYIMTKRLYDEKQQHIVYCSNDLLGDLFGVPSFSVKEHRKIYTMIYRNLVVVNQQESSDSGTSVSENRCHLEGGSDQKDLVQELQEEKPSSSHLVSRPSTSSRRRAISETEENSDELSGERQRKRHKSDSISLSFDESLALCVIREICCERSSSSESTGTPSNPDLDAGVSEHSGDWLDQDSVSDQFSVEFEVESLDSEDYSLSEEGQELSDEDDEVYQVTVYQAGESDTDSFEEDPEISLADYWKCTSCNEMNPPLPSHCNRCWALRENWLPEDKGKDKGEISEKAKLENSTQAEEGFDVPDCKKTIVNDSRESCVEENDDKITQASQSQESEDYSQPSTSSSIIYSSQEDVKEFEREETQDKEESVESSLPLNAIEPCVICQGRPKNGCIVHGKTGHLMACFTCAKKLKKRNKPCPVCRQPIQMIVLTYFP
UniProt P25098: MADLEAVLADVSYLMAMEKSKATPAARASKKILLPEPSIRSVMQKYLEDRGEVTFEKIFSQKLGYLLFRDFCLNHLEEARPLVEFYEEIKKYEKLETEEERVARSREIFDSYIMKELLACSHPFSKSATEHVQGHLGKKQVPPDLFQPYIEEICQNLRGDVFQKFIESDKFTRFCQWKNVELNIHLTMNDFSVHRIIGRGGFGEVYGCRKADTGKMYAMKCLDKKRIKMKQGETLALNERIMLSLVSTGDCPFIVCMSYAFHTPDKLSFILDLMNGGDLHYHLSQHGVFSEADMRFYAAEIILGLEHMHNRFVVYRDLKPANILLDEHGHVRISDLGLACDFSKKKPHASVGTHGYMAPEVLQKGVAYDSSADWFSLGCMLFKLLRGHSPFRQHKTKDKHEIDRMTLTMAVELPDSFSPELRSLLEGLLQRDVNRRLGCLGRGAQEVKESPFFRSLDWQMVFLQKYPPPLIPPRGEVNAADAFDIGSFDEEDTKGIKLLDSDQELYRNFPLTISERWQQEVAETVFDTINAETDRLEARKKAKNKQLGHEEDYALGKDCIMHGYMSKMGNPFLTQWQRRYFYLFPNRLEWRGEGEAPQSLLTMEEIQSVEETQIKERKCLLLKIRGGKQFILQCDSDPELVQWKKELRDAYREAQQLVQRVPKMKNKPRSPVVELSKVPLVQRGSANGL

For experiment [2], the target named is FLAG-Mdm2 (UniProt Q00987). The experiment is described as above.
The target in experiment [3] is FLAG-[βarr]D2R (human) (UniProt P14416). The experiment can be described thus: co-IP; HEK 293 cells co-transfected, treated with vehicle or 10 μM DA for 2 min; lysates incubated with anti-FLAG agarose beads 2-3 h at 4 °C, washed three times, immunoblot.
For experiment [4], the target named is FLAG-Mdm2 (UniProt Q00987). The description is as above.

The values below come from paper PMC10298151.

These are yes or no findings as the source states them, for the method shown. Binding seen in cells or lysates may run through a third protein. Some results given as binding are weak or reduced against the parent protein; the word gives no strength.

With “GRK2 (from UniProt P25098 1-689) (enzyme)”, the binding result with FLAG-[βarr]D2R (human) [1] is recorded as “no binding”; in the experiment with FLAG-Mdm2 [2] it was “no binding”; with FLAG-[βarr]D2R (human) [3] it was “binds”; with FLAG-Mdm2 [4] it was “binds”.
As to “GFP-GRK2 (from UniProt P25098 1-689) (enzyme)”, the binding result in the experiment with FLAG-[βarr]D2R (human) [3] and with FLAG-Mdm2 [4] was “binds” in each case.
